SMILES strings stand for the structures.

Consider `COc1ccc2cc(C(C)C(=O)O)ccc2c1` (stereo not drawn) [naproxen, (+) α-methyl-6-methoxy-2-naphthaleneacetic acid], for which the “cell localization of ANP” value in the experiment with nuclear export of ANP was “localized mainly in the nucleus”. Further, the “cell localization of BNP” value with nuclear export of BNP was “localized mainly in the nucleus”.

The values are drawn from patent US20200297798A1, “KEY AMINO ACID SITES […] EXPORT OF NUC[…] INFLUENZA A AND B VIRUSES AND USE THEREOF AS ANTI-INFLUENZA VIRUS DRUG TARGETS” (INSTITUTE OF MICROBIOLOGY, CHINESE ACADEMY OF SCIENCES, priority 2017, published 2020).
